Results on four substances are retold here after PMC8953162.

By UniProt entry, the sequences of proteins in these tests, tags left out. Where a name states a change or a piece, a line headed by the entry shows the natural chain unless it says otherwise.
UniProt P35367: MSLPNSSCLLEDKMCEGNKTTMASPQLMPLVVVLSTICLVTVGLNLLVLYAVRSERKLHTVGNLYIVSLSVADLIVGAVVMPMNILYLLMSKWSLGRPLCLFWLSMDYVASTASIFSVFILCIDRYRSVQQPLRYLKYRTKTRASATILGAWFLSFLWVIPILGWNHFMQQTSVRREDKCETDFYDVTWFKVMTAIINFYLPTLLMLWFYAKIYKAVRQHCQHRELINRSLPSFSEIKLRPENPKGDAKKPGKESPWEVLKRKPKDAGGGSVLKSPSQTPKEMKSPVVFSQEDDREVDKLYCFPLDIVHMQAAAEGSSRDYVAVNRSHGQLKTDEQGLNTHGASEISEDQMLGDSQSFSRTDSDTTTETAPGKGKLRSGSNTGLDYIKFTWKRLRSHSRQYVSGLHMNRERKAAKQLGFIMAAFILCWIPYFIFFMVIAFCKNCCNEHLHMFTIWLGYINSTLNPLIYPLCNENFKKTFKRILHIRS
UniProt P49407: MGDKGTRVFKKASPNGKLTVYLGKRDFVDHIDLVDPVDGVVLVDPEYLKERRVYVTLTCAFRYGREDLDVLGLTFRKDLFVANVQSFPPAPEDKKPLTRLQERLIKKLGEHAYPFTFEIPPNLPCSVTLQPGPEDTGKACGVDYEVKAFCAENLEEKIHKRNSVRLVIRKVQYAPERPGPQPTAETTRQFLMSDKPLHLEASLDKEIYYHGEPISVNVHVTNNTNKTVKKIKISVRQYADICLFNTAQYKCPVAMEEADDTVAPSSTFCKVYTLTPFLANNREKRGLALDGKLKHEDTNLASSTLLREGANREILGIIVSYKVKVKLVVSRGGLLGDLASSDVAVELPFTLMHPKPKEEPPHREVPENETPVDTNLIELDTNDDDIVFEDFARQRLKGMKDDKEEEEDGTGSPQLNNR
UniProt P25098: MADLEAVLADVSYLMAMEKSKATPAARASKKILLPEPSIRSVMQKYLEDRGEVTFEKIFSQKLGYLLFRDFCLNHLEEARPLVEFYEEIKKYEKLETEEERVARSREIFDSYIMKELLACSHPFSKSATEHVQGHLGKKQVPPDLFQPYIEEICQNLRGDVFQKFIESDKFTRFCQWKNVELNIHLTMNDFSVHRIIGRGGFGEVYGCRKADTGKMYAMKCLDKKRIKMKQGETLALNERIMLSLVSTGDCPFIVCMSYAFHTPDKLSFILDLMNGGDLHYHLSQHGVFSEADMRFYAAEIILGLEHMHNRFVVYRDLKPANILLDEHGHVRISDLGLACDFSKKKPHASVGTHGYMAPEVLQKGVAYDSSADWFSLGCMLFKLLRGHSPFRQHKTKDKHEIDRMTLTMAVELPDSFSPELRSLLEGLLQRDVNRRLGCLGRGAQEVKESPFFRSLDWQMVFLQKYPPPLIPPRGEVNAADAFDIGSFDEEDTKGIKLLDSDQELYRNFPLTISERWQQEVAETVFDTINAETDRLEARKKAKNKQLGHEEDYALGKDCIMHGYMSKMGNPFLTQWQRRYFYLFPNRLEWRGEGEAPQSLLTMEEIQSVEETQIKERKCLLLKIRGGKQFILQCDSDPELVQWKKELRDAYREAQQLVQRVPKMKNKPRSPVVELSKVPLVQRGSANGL
UniProt P32121: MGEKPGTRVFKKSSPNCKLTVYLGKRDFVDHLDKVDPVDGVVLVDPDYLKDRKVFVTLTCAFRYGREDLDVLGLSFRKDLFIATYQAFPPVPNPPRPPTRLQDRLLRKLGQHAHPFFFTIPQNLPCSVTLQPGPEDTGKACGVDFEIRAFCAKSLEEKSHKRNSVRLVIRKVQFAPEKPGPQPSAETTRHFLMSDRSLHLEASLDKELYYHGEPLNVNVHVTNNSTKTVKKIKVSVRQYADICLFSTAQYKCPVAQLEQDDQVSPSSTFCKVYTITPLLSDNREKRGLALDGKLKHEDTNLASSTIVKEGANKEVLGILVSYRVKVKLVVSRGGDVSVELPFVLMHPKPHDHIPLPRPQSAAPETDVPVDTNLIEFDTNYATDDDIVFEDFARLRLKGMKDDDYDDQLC
UniProt P35626: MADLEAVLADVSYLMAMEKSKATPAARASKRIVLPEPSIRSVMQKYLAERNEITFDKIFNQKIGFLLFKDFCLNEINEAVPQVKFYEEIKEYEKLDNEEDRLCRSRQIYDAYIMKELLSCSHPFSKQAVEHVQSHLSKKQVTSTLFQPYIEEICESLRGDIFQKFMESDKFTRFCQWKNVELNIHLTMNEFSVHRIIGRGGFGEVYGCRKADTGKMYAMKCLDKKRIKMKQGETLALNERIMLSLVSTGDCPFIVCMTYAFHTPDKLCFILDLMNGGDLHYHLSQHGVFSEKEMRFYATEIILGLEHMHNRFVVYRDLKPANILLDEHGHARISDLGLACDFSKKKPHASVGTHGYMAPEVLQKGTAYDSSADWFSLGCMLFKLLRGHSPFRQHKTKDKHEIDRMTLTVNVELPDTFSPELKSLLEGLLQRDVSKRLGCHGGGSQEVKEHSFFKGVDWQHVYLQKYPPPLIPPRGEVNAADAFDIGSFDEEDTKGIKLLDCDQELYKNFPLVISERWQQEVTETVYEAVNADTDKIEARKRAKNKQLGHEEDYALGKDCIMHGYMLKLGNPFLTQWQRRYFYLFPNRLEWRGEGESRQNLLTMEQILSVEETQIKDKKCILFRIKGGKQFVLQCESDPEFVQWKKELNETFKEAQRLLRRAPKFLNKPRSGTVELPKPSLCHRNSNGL

The experiment has as its target Human histamine H1 receptor fused to Renilla luciferase 8 (H1R-Rluc8) (human) (UniProt P35367). Nature of the experiment: FRET or BRET; BRET in living HEK293T cells co-expressing H1R-Rluc8 (donor) and an eYFP/mVenus fusion (acceptor); 5 µM coelenterazine-h in HBSS at 37 °C; basal BRET, then 10 µM histamine in real time or increasing concentrations of agonist for 1 h; ΔBRET against vehicle; 30-min pretreatment with vehicle, 3 µM cmpd101 or 1 µM UBO-QIC in some panels.

No constants are given. Whether binding was seen depends on the method and setting. In cells and extracts the contact can be indirect. Some binding calls cover weakened binding; strength is not graded here.

Regarding “β-arrestin1-enhanced yellow fluorescent protein (eYFP) (from UniProt P49407 1-418)”, the binding result is listed as “binds”. As to “GPCR kinase 2 fused to mVenus (GRK2-mVenus) (from UniProt P25098 1-689) (enzyme)”, the binding entry is reported as “binds”.

Consider “β-arrestin2-mVenus (from UniProt P32121 1-409)”, for which the binding entry is on record as “binds”.

“GPCR kinase 3 fused to mVenus (GRK3-mVenus) (from UniProt P35626 1-688) (enzyme)”: the binding entry is “binds”.
